4 molecules from patent publication US20230295301A1 can be followed below.

Amino acid sequences for entries named in this document (tags omitted). A change or cut given only in a name is not applied to a line headed by its entry.
UniProt P16410: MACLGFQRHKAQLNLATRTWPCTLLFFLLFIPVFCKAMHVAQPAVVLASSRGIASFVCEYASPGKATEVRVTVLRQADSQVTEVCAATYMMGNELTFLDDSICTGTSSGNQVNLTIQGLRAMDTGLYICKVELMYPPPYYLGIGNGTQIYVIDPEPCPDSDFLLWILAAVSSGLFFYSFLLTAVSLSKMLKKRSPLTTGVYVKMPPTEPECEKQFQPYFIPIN

Experiment [1] deals with huCTLA-4 (human) (UniProt P16410). The experiment is described as follows: ForteBio, antibody captured on protein A probe, 55 nM huCTLA antigen. (In BLI a coated tip is dipped into the sample, and binding shifts an interference pattern.)
For experiment [2], the target named is huCTLA-4 ECD (his-tag) (human) (UniProt P16410). The experiment is described as follows: ELISA, coated huCTLA-4 his. (In an ELISA, binding on a coated surface is turned into a signal by an enzyme label.)
Experiment [3] has as its target huCTLA-4 (human) (UniProt P16410). The experiment is described as follows: ForteBio.

Substitutions are numbered along the chain they refer to. No constants are given. Whether binding was seen depends on the method and setting. Some results given as binding are weak or reduced against the parent protein; the word gives no strength.

B1: huJS007-47 (antibody, human IgG1, kappa, V domains shown)
VH: QVQLQESGPGLVKPSQTLSLTCTVSAYSITSGYYWNWIRQHPGKGLEWIGYIGYDGSNNYNPSLKSRVTISRDTSKNQFSLKLSSVTAADTAVYYCARDYYSGYFDSWGQGTTLTVSS
VL: DIQMTQSPSSLSASVGDRVTITCRASQNVGTYVAWYQQKPGKVPKPLIYSTSYRYSGVPSRFSGSGSGTDFTLTISSLQPEDVATYFCHQYDTYPLTFGAGTKLELKR
As for B1, in experiment [1], the binding result is recorded as “binds”.

B2: HuJS007-45 (antibody, V domains shown)
VH: B1 VH with A26G
VL: EIVMTQSPATLSVSPGERATLSCKASQNVGTYVAWYQQKPGQAPRPLIYSTSYRYSGIPARFSGSGSGTEFTLTISSLQSEDFAVYFCHQYDTYPLTFGQGTKLEIK
With B2, the binding result in experiment [2] was “binds”.

B3: 1A5.1 (antibody, V domains shown)
VH: DVQLQESGQGLVKPSQSLSLTCSVTGYSITSGYYWNWIRQFPGNKLEWLGYIGYDGSNYYNPSLKNRISITRDTSKNQFFLKLNSVTSEDTATYFCARNYYSGYFDFWGQGTTLTVSS
VL: DIVMTQSQKFMSTSVGDRVSVTCKASQIVGSYVAWYQQKLGQSPKALIYSTSYRHSGVPDRFTGSGSGTDFTLTISNVQSEDLAEYFCQQHHLPLTFGAGTKLEIK
B3: the binding entry in experiment [3] was “binds”.

B4: 3E6.1 (antibody, V domains shown)
VH: EVKLVESGGGLVQPGGSLRLSCATSGFTFTDYYMSWVRQPPGKALEWLGFIRNKANGFTAEYSASVKGRFTISRDNSQSILYLQMNTLRAEDSATYYCARDSLAYPHYYAMDYWGQGTSVTVSS
VL: QIVLTQSPALMSASPGEKVTMTCSASSSVSYMYWYQQKPRSSPKPWIYLTSNLASGVPVRFSGSGSGTSYSLTISSMEAEDAATYYCQQWSSNSFTFGSGTKLEIK
Turning to B4, in experiment [3], the binding result is listed as “binds”.
